No constants are given. Whether binding was seen depends on the method and setting. In cells and extracts the contact can be indirect. Some binding calls cover weakened binding; strength is not graded here.
Target: type 1 IGF receptor (IGF-1R) (human (endogenous in MCF-7)) (UniProt P08069)
Experiment: co-IP; endogenous proteins in MCF-7 cells pretreated with MG132 (10 uM) for 6 h; IP with HRD1 or IGF-1R antibodies, then immunoblotting; IgG as negative control; lysis buffer 50 mM Tris pH 7.4, 150 mM NaCl, 1 mM EDTA, 0.5% NP-40, 10% glycerol

By UniProt entry, the sequences of proteins in these tests, tags left out. Residues count along the entry.
UniProt P08069, residues 31-1367: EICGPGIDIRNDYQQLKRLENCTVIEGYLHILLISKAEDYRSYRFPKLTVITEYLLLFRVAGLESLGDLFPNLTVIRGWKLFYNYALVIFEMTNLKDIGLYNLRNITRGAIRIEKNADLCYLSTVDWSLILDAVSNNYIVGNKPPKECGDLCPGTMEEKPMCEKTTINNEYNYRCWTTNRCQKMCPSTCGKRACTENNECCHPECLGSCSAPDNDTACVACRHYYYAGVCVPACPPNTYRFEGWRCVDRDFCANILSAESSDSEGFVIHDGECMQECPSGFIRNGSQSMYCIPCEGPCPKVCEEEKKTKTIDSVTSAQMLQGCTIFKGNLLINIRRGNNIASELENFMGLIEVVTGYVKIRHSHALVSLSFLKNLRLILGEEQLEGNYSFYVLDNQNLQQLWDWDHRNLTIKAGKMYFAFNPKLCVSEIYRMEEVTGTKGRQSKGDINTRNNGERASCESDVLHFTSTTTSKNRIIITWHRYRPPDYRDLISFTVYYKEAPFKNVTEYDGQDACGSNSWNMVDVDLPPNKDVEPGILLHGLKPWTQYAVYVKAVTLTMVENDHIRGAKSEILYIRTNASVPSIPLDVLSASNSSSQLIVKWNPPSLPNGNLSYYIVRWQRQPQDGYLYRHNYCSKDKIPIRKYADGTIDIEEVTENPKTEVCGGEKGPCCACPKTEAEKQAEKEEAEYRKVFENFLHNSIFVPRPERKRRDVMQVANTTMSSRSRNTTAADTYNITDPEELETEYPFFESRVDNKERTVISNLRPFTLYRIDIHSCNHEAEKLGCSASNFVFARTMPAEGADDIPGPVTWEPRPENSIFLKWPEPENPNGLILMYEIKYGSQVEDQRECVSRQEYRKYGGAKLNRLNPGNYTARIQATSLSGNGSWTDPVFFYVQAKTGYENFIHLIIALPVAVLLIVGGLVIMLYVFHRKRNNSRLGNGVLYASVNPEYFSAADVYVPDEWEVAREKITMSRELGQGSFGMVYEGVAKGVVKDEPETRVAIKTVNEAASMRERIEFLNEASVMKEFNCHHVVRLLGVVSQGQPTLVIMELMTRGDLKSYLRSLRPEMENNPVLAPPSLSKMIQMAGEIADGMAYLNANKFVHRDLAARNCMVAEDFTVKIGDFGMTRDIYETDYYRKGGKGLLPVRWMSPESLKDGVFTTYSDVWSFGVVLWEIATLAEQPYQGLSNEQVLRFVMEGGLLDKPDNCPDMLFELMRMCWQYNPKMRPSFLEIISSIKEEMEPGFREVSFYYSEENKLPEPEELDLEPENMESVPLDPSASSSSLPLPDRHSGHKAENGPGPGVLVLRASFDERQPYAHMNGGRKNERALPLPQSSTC
UniProt Q86TM6: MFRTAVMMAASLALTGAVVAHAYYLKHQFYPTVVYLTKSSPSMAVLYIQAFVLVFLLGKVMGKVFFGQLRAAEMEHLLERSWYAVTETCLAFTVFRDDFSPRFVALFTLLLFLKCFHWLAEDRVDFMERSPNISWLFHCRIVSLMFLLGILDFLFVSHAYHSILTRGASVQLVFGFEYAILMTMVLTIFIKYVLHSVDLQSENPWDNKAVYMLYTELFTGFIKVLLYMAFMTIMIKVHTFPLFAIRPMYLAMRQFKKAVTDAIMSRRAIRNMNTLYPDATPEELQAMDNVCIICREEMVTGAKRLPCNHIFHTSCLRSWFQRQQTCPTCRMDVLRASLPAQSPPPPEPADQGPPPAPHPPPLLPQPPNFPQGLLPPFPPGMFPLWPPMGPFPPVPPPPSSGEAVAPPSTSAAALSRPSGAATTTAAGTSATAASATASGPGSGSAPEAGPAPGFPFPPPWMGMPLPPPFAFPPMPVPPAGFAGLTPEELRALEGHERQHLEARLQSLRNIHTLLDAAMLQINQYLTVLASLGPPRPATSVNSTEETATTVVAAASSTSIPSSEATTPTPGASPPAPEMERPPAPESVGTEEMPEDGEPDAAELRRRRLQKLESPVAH

HRD1 (3-hydroxy-3-methylglutaryl reductase degradation) (from UniProt Q86TM6 1-617) (enzyme)
binding: binds
